Results are given in words; binding and its absence hold for the method and conditions named. Binding seen in cells or lysates may run through a third protein. Some entries that bind do so weakly or less than the wild type. Tags and fused reporters may be left off the sequences shown.
Biological target: T1, GFP-tagged full-length human Pxt1 (peroxisomal testis-specific 1) (human) (UniProt Q8NFP0)
T1 sequence: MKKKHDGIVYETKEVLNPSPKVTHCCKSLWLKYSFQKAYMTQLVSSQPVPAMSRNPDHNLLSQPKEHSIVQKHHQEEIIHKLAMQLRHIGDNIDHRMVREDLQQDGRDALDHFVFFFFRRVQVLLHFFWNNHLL
Assay: co-IP; HeLa cells expressing GFP-tagged Pxt1 constructs with transiently expressed HA-Bak or HA-Bax, or with endogenous Bak/Bax; 20 μM z-VAD-fmk before transfection; lysis in 50 mM Tris–HCl pH 7.5, 150 mM NaCl, 0.5% Triton X-100, 1 mM EDTA; anti-GFP or anti-HA antibody overnight at 4°C, protein G agarose; immunoblotting

Amino acid sequences for entries named in this document (tags omitted).
UniProt Q07812: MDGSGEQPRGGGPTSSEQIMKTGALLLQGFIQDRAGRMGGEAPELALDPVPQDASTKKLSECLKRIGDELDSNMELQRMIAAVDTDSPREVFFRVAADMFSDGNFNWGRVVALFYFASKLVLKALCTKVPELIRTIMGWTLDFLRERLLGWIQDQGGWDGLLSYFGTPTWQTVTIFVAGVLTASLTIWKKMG

Substance	binding
HA-tagged full-length Bax (Bcl-2-associated X), transiently expressed (from UniProt Q07812 1-192)	binds
endogenous Bax of HeLa cells (from UniProt Q07812 1-192)	binds
